Article PMC3916906
Results are given in words; binding and its absence hold for the method and conditions named. For some of these results: Binding seen in cells or lysates may run through a third protein. Some binding calls cover weakened binding; strength is not graded here.

Sequences of proteins named here, by UniProt entry; tags and fusion partners are left off. A change or cut given only in a name is not applied to a line headed by its entry.
UniProt Q9UKV8: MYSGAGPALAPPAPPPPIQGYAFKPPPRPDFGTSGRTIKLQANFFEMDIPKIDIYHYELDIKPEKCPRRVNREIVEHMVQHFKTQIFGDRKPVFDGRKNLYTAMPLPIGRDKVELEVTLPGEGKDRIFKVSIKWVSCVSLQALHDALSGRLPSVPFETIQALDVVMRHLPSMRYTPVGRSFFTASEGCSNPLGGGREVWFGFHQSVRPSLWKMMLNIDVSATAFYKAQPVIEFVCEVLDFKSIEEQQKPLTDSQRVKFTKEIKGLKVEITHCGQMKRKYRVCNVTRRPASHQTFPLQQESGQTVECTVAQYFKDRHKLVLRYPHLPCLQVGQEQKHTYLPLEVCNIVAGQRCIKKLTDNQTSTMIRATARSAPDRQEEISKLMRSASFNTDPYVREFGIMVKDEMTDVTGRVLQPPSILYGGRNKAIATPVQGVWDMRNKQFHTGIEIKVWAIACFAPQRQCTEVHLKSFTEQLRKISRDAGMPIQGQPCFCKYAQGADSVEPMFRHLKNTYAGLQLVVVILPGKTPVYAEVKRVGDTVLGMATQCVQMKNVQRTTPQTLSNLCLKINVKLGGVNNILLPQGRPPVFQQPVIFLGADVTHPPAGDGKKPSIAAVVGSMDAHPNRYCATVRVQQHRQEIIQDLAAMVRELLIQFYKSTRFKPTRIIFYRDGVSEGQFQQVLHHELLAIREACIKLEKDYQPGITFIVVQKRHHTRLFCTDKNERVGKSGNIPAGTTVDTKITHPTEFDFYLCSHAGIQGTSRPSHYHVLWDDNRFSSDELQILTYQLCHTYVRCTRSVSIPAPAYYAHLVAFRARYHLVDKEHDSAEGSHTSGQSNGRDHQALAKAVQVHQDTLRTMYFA
UniProt Q9UPY3: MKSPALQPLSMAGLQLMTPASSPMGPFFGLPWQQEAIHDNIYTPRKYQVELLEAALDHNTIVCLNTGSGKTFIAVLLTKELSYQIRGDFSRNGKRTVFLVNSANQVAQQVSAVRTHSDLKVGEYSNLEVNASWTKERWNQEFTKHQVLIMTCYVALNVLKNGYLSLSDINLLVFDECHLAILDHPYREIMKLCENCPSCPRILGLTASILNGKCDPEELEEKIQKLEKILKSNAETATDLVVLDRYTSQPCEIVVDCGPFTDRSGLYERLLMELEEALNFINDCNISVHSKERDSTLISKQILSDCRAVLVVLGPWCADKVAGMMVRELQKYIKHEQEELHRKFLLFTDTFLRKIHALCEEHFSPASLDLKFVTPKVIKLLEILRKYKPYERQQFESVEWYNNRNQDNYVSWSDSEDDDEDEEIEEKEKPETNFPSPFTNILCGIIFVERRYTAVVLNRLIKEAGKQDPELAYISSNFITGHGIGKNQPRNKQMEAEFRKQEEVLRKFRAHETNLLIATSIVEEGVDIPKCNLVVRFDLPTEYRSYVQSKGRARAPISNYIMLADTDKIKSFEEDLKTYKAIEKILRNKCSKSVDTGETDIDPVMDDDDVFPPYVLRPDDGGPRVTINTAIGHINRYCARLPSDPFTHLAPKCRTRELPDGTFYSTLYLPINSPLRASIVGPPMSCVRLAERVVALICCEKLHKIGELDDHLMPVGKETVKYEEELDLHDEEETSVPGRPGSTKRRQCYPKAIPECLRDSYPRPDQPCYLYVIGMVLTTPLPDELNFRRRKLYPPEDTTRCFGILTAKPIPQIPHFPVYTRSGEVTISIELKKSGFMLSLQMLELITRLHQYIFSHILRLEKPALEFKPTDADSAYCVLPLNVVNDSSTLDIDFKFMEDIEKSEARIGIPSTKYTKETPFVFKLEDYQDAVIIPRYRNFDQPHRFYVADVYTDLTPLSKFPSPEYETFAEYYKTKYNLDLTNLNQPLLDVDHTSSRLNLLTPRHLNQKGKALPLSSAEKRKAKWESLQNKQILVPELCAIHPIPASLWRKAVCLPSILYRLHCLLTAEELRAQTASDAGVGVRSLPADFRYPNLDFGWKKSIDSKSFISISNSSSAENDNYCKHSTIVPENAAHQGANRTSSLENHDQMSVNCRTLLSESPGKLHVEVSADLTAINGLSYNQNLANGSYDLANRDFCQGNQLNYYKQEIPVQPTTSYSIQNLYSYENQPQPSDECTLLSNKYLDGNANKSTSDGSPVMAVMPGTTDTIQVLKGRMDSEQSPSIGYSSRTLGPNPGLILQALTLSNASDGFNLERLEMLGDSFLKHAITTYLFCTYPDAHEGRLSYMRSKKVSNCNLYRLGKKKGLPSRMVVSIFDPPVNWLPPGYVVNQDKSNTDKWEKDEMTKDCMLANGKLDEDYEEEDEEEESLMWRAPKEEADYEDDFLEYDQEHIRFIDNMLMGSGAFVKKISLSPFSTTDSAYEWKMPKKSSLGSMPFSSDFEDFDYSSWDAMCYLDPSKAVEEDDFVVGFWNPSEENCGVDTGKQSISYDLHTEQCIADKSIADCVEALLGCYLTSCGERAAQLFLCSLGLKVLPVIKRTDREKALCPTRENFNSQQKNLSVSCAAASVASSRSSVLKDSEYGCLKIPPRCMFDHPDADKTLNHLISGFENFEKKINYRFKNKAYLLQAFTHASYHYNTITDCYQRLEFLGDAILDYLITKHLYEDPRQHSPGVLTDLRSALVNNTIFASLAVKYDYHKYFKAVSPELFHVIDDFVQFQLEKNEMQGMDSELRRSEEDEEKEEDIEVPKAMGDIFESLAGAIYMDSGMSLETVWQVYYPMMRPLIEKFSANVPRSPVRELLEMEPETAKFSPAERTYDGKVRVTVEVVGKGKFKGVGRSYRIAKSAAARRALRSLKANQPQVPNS
UniProt Q8NDV7: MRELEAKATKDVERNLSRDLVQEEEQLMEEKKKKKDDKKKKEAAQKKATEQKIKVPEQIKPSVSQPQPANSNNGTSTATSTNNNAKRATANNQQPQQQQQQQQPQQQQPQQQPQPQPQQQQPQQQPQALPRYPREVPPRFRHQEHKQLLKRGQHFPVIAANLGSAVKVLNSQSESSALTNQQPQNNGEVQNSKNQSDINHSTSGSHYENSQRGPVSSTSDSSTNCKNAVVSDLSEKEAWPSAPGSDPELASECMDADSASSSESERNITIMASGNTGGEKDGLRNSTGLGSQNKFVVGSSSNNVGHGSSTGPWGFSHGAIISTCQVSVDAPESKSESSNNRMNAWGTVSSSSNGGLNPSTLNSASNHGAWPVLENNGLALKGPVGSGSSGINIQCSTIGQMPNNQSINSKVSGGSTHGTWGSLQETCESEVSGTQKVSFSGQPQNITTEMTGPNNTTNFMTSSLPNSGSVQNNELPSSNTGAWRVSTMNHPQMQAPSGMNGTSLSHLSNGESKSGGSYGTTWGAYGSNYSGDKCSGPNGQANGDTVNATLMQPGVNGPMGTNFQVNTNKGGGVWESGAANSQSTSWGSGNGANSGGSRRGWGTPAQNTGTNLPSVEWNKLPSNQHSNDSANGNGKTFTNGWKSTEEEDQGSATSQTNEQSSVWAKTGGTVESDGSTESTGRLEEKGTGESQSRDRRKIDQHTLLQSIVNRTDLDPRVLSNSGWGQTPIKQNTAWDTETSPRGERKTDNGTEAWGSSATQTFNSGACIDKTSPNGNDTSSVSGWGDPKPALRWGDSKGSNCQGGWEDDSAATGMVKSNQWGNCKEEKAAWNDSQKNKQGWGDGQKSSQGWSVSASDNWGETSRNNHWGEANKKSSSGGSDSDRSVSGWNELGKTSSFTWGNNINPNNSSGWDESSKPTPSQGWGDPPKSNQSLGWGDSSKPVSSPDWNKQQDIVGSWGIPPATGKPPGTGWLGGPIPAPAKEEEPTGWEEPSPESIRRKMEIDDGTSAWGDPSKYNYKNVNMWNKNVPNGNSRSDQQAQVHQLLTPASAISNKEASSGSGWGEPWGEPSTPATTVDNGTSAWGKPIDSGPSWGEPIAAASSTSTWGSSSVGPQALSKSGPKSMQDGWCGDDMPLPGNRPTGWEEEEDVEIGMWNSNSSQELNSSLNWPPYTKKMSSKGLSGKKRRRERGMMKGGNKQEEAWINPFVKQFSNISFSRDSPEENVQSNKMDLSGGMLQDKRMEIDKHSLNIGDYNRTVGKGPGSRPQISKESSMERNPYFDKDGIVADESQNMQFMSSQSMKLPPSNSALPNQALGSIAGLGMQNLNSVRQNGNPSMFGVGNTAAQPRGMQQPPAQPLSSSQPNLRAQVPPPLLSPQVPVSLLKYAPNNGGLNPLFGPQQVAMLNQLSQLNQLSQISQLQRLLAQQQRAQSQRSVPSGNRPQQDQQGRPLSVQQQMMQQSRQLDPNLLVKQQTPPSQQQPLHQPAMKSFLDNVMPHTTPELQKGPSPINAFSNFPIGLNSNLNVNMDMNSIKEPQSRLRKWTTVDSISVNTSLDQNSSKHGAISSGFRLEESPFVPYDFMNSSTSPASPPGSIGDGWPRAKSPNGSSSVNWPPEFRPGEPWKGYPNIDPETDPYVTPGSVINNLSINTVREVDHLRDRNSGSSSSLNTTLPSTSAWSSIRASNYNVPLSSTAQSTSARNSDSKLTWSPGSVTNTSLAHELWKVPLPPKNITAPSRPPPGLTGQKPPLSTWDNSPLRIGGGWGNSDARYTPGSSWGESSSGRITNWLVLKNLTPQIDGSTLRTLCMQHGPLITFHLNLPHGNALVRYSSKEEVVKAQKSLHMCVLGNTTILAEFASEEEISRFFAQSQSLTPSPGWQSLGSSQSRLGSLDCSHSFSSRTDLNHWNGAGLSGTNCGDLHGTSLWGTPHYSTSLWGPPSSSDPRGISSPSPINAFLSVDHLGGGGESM

Assays:
[1] = biological target: Argonaute-2 (Ago2), endogenous (human (endogenous in HeLa and T47D)) (UniProt Q9UKV8); assay: SEC; HeLa nuclear extract, treated with RNase A or SUPERase-In, on Superdex 200 HiLoad 16/60 in 20 mM Tris-HCl pH 7.5, 150 mM NaCl, 3 mM MgCl2, 5% glycerol; fractions by Western blot
[2] = biological target: FLAG-HA-tagged Ago2 (FHA-Ago2) (human) (UniProt Q9UKV8); assay: co-IP; anti-FLAG immunoprecipitation of FHA-Ago2 from nuclear extract of T47D cells stably expressing it; HeLa nuclear extract as negative control; Western blot
[3] = biological target: Argonaute-2 (Ago2), endogenous (human (endogenous in HeLa and T47D)) (UniProt Q9UKV8); assay: co-IP; T47D nuclear extract treated with RNase A (20 μg added before incubation); Protein G Plus/Protein A resin, 4°C, 2-3 h; Western blot
[4] = biological target: Argonaute-2 (Ago2), endogenous (human (endogenous in HeLa and T47D)) (UniProt Q9UKV8); assay: anion-exchange chromatography; high molecular weight size-exclusion fractions of HeLa nuclear extract concentrated and run on Mono-Q, linear gradient 0.1 to 1 M NaCl; fractions by Western blot
[5] = biological target: Argonaute-2 (Ago2), endogenous (human (endogenous in HeLa and T47D)) (UniProt Q9UKV8); assay: co-IP; endogenous proteins from pre-cleared HeLa nuclear extract; Protein G Plus/Protein A resin and antibody, 4°C, 2-3 h; wash 20 mM Tris-HCl pH 7.5, 0.4 M NaCl, 2 mM MgCl2, 0.05% NP-40, 0.025% SDS; Western blot

Measured: binding

Dicer, endogenous (from UniProt Q9UPY3 1-1922) (enzyme)
binds: all assays above

TNRC6A (GW182 homolog), endogenous (from UniProt Q8NDV7 1-1962)
binds: all assays above
